Test results as given in the supplement of paper PMC8728848.
The list shows a part of the results.

Legend:
Assay in all cases: glycan array binding signal (z-score within array); higher = stronger binding
Settings in all cases: glycan notation: IUPAC condensed, linker removed; mutation: R276L
[1] = molecular target: Gal(a1-6)Glc
In short: (§1)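 The binding signal is a Z-score computed within each array and averaged over linkers. Arrays of the same protein sequence at different concentrations or buffers were also averaged together. Data originate from 3228 arrays in the Consortium for Functional Glycomics database, kept only where the protein sequence was available.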

[2] = molecular target: Gal(b1-2)Gal
In short: as §1

[3] = molecular target: Gal(b1-3)Gal
In short: as §1

[4] = molecular target: Gal(b1-3)Gal(b1-4)GlcNAc
In short: as §1

[5] = molecular target: Gal(b1-3)GalNAc
In short: as §1

[6] = molecular target: Gal(b1-3)GalNAc(a1-3)[Fuc(a1-2)]Gal(b1-4)Glc
In short: as §1

[7] = molecular target: Gal(b1-3)GalNAc(a1-3)[Fuc(a1-2)]Gal(b1-4)GlcNAc
In short: as §1

[8] = molecular target: Gal(b1-3)GalNAc(b1-3)Gal
In short: as §1

[9] = molecular target: Gal(b1-3)GalNAc(b1-3)Gal(a1-4)Gal(b1-4)Glc
In short: as §1

[10] = molecular target: Gal(b1-3)GalNAc(b1-4)Gal(b1-4)Glc
In short: as §1

[11] = molecular target: Gal(b1-3)GalNAc(b1-4)[Neu5Ac(a2-3)]Gal(b1-4)Glc
In short: as §1

[12] = molecular target: Gal(b1-3)GlcNAc
In short: as §1

[13] = molecular target: Gal(b1-3)GlcNAc(a1-3)Gal(b1-4)GlcNAc
In short: as §1

[14] = molecular target: Gal(b1-3)GlcNAc(a1-6)Gal(b1-4)GlcNAc
In short: as §1

[15] = molecular target: Gal(b1-3)GlcNAc(b1-2)Man
In short: as §1

[16] = molecular target: Gal(b1-3)GlcNAc(b1-2)Man(a1-3)[Gal(b1-3)GlcNAc(b1-2)Man(a1-6)]Man(b1-4)GlcNAc(b1-4)GlcNAc
In short: as §1

[17] = molecular target: Gal(b1-3)GlcNAc(b1-2)Man(a1-3)[Gal(b1-3)GlcNAc(b1-2)Man(a1-6)]Man(b1-4)GlcNAc(b1-4)[Fuc(a1-6)]GlcNAc
In short: as §1

[18] = molecular target: Gal(b1-3)GlcNAc(b1-2)Man(a1-3)[GlcNAc(b1-4)][Gal(b1-3)GlcNAc(b1-2)Man(a1-6)]Man(b1-4)GlcNAc(b1-4)GlcNAc
In short: as §1

[19] = molecular target: Gal(b1-3)GlcNAc(b1-2)[Gal(b1-3)GlcNAc(b1-6)]Man(a1-6)[Gal(b1-3)GlcNAc(b1-2)Man(a1-3)]Man(b1-4)GlcNAc(b1-4)GlcNAc
In short: as §1

[20] = molecular target: Gal(b1-3)GlcNAc(b1-3)Gal(b1-3)GlcNAc
In short: as §1

[21] = molecular target: Gal(b1-3)GlcNAc(b1-3)Gal(b1-4)Glc
In short: as §1

[22] = molecular target: Gal(b1-3)GlcNAc(b1-3)Gal(b1-4)GlcNAc
In short: as §1

[23] = molecular target: Gal(b1-3)GlcNAc(b1-3)Gal(b1-4)GlcNAc(b1-2)Man(a1-3)[Gal(b1-3)GlcNAc(b1-3)Gal(b1-4)GlcNAc(b1-2)Man(a1-6)]Man(b1-4)GlcNAc(b1-4)GlcNAc
In short: as §1

[24] = molecular target: Gal(b1-3)GlcNAc(b1-3)Gal(b1-4)GlcNAc(b1-2)[Gal(b1-3)GlcNAc(b1-3)Gal(b1-4)GlcNAc(b1-6)]Man(a1-6)[Gal(b1-3)GlcNAc(b1-3)Gal(b1-4)GlcNAc(b1-2)Man(a1-3)]Man(b1-4)GlcNAc(b1-4)[Fuc(a1-6)]GlcNAc
In short: as §1

[25] = molecular target: Gal(b1-3)GlcNAc(b1-3)Gal(b1-4)GlcNAc(b1-3)Gal(b1-4)GlcNAc(b1-2)[Gal(b1-3)GlcNAc(b1-3)Gal(b1-4)GlcNAc(b1-3)Gal(b1-4)GlcNAc(b1-6)]Man(a1-6)[Gal(b1-3)GlcNAc(b1-3)Gal(b1-4)GlcNAc(b1-3)Gal(b1-4)GlcNAc(b1-2)Man(a1-3)]Man(b1-4)GlcNAc(b1-4)[Fuc(a1-6)]GlcNAc
In short: as §1

[26] = molecular target: Gal(b1-3)GlcNAc(b1-3)Gal(b1-4)GlcNAc(b1-6)[Gal(b1-3)GlcNAc(b1-3)]Gal(b1-4)Glc
In short: as §1

[27] = molecular target: Gal(b1-3)GlcNAc(b1-3)Gal(b1-4)[Fuc(a1-3)]GlcNAc
In short: as §1

[28] = molecular target: Gal(b1-3)GlcNAc(b1-3)Gal(b1-4)[Fuc(a1-3)]GlcNAc(b1-6)[Gal(b1-3)GlcNAc(b1-3)]Gal(b1-4)Glc
In short: as §1

[29] = molecular target: Gal(b1-3)GlcNAc(b1-3)GalNAc
In short: as §1

[30] = molecular target: Gal(b1-3)GlcNAc(b1-6)Gal(b1-4)GlcNAc
In short: as §1

[31] = molecular target: Gal(b1-3)GlcNAc(b1-6)GalNAc
In short: as §1

[32] = molecular target: Gal(b1-3)GlcNAc(b1-6)[Gal(b1-3)]GalNAc
In short: as §1

[33] = molecular target: Gal(b1-3)GlcNAc6S
In short: as §1

[34] = molecular target: Gal(b1-3)[Fuc(a1-4)]GlcNAc
In short: as §1

[35] = molecular target: Gal(b1-3)[Fuc(a1-4)]GlcNAc(b1-2)Man
In short: as §1

[36] = molecular target: Gal(b1-3)[Fuc(a1-4)]GlcNAc(b1-2)Man(a1-3)[Gal(b1-3)[Fuc(a1-4)]GlcNAc(b1-2)Man(a1-6)]Man(b1-4)GlcNAc(b1-4)[Fuc(a1-6)]GlcNAc
In short: as §1

[37] = molecular target: Gal(b1-3)[Fuc(a1-4)]GlcNAc(b1-3)Gal(b1-3)[Fuc(a1-4)]GlcNAc
In short: as §1

B1: SUN4P (Saccharomyces cerevisiae), P53616 (protein)
chain: MGSSHHHHHHSSGLVPRGSHNGSIYGDLADFSGPYEKFEDGTIPCGQFPSGQGVIPISWLDEGGWSGVENTDTSTGGSCKEGSYCSYACQPGMSKTQWPSDQPSDGRSIGGLLCKDGYLYRSNTDTDYLCEWGVDAAYVVSELSNDVAICLTDYPGTENMVIPTYVQAGDSLPLTVVDQDTYYTWQGLKTSAQYYVNNAGISVEDACVWGSSSSGVGNWAPLNFGAGSSDGVAYLSLIPNPNNGNALNFNVKIVAADDSSTVNGECIYENGSFSGGSDGCTVSVTAGKAKFVLYN
glycan array binding signal (z-score) [1]: 0.903 | glycan array binding signal (z-score) [2]: 0.046 | glycan array binding signal (z-score) [3]: 1.8 | glycan array binding signal (z-score) [4]: 0.813 | glycan array binding signal (z-score) [5]: 2.6 | glycan array binding signal (z-score) [6]: 0.654 | glycan array binding signal (z-score) [7]: 0.139 | glycan array binding signal (z-score) [8]: 7.07 | glycan array binding signal (z-score) [9]: 1.21 | glycan array binding signal (z-score) [10]: 11.2 | glycan array binding signal (z-score) [11]: 0.232 | glycan array binding signal (z-score) [12]: -0.318 | glycan array binding signal (z-score) [13]: 0.277 | glycan array binding signal (z-score) [14]: -0.043 | glycan array binding signal (z-score) [15]: -0.342 | glycan array binding signal (z-score) [16]: -0.366 | glycan array binding signal (z-score) [17]: 0.115 | glycan array binding signal (z-score) [18]: -0.233 | glycan array binding signal (z-score) [19]: 0.279 | glycan array binding signal (z-score) [20]: -0.507 | glycan array binding signal (z-score) [21]: -0.852 | glycan array binding signal (z-score) [22]: -0.963 | glycan array binding signal (z-score) [23]: 1.37 | glycan array binding signal (z-score) [24]: 2.11 | glycan array binding signal (z-score) [25]: -0.881 | glycan array binding signal (z-score) [26]: 0.725 | glycan array binding signal (z-score) [27]: -0.376 | glycan array binding signal (z-score) [28]: -0.767 | glycan array binding signal (z-score) [29]: -1.33 | glycan array binding signal (z-score) [30]: 1.77 | glycan array binding signal (z-score) [31]: 0.933 | glycan array binding signal (z-score) [32]: -0.199 | glycan array binding signal (z-score) [33]: -0.907 | glycan array binding signal (z-score) [34]: -0.04 | glycan array binding signal (z-score) [35]: 1.06 | glycan array binding signal (z-score) [36]: 1.72 | glycan array binding signal (z-score) [37]: -0.128
